Data as given in PubChem BioAssay AID743454 (Peter MacCallum Cancer Centre, 2014)

Test: 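Genes whose loss kills vorinostat-resistant colon cancer cells under vorinostat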 (primary screen)
System: human HCT116-VR colon cancer cells, selected for vorinostat resistance
Reagents: siRNA pool against human genes, 40 nM siRNA pool
Timing: vorinostat for 24 h, read-out about 72 h after transfection
Challenge: vorinostat at 2.5 µM final
Detection: 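Cell viability by CellTiter-Fluor and caspase 3/7 activity by luminescence, each scaled to mock wells per plate, duplicates averaged, then robust z-scored over all plates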
Scale: viability robust z-score: higher = more viable cells than screen typical; caspase robust z-score: higher = more caspase 3/7 activity than screen typical
Call rule: 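Hits are knock-downs in viability class RV1/RV2 or caspase class CA1/CA2, excluding ones that killed cells in the no-drug cell-count arm; hits then retested with single siRNAs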
The whole screen tested about 18,000 reagents; shown is a random part of them. In the full data, 450 (2.5%) got an active call. 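Single biological run; no consistent viability z cut-off exists, so the class columns, not z-scores, define the calls.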 Entries without a mark were called inactive. The numbers tell different reagents against one gene apart.

target | pool no. | viability hit class | caspase hit class | viability robust z-score | caspase robust z-score
JAK3 | 1 | no change | no change | 0.11 | 1.23
MED14 | 1 | no change | no change | -1.19 | 1.44
PALM2AKAP2 | 1 | no change | no change | 0.42 | 0.73
PALM2AKAP2 | 2 | no change | no change | 0.97 | 3.85
PALM2AKAP2 | 3 | no change | no change | 0.76 | 0.64
SPMIP3 | 1 | no change | no change | -2.38 | -0.12
P2RX7 | 1 | no change | no change | -0.18 | -0.92
HDAC7 | 1 | no change | no change | -0.39 | -1.1
POU4F2 | 1 | no change | no change | -0.58 | -0.15
NLRP2 | 1 | no change | no change | 1.25 | 0.6
PON3 | 1 | no change | no change | 0.32 | 0.5
OAZ1 | 1 | no change | no change | 0.13 | 0.66
HSD11B1L | 1 | no change | no change | -0.47 | 0.88
SPART | 1 | no change | no change | 0.88 | -0.71
KALRN | 1 | no change | no change | 0.23 | -0.25
OSBPL9 | 1 | no change | no change | 0.29 | -0.23
OLFML2B | 1 | no change | no change | 1.21 | 0.54
PLIN3 | 1 | no change | no change | -1.16 | 1.11
DNAJC4 | 1 | no change | no change | -0.12 | -0.92
TNPO2 | 1 | no change | no change | -2.1 | 1.45
ABCG2 | 1 | no change | no change | 0.64 | -0.58
CSNK1G1 | 1 | no change | no change | -2.1 | 1.02
RUSC1-AS1 | 1 | no change | no change | 0.42 | -0.48
NODAL | 1 | no change | no change | -1.77 | 3.7
YWHAB | 1 | no change | no change | -1.32 | -1.01
TAS2R40 | 1 | no change | no change | -1.06 | 0.55
HECTD4 | 1 | no change | no change | -0.32 | 0.68
RBP7 | 1 | no change | no change | 0.1 | -0.72
SIAE | 1 | no change | no change | 0.45 | 0.12
ELFN2 | 1 | no change | no change | -1.6 | 4.78
FSIP1 | 1 | no change | no change | 1.12 | -0.29
LTB4R | 1 | no change | no change | -1.08 | 3.62
P2RX4 | 1 | no change | no change | 1.32 | 1.4
MTRF1 | 1 | no change | no change | 1 | -0.03
MPLKIP | 1 | no change | no change | -1.49 | 2.56
RAD23A | 1 | no change | no change | -0.36 | -0.19
RHOA | 1 | no change | no change | -1.34 | 0.44
ETFA | 1 | no change | no change | 1.04 | -0.42
MEGF9 | 1 | no change | no change | 1.1 | -0.66
RET | 1 | no change | no change | 1.14 | -0.86
ZNF322 | 1 | no change | no change | -2.07 | 4.73
HEPN1 | 1 | no change | no change | 0.15 | -0.4
TRPV5 | 1 | no change | no change | -1.6 | 1.97
MAS1 | 1 | no change | no change | 1.01 | 1.86
KPRP | 1 | no change | no change | -3.48 | -0.59
UNCX | 1 | no change | no change | -0.13 | 1.99
TAT | 1 | no change | no change | -0.57 | -0.27
PCBP1 | 1 | no change | no change | -0.07 | -0.12
GPR158 | 1 | no change | no change | 0.5 | 0.28
CENPBD1P | 1 | no change | no change | 0.01 | -0.71
IGF2-AS | 1 | no change | no change | 0.48 | -0.78
CMC2 | 1 | no change | no change | -0.52 | -0.58
KCMF1 | 1 | no change | no change | 1.49 | -0.24
MYEF2 | 1 | no change | no change | -0.21 | -0.56
CDH10 | 1 | no change | no change | 0.95 | -0.33
CCNO | 1 | no change | no change | 1.28 | 0.04
FCHSD2 | 1 | no change | no change | 0.18 | 0.05

7 of these entries, reformatted:
| target | pool no. | viability hit class | caspase hit class | viability robust z-score | caspase robust z-score |
| --- | --- | --- | --- | --- | --- |
| TAS2R40 | 1 | no change | no change | -1.06 | 0.55 |
| HECTD4 | 1 | no change | no change | -0.32 | 0.68 |
| RBP7 | 1 | no change | no change | 0.1 | -0.72 |
| SIAE | 1 | no change | no change | 0.45 | 0.12 |
| ELFN2 | 1 | no change | no change | -1.6 | 4.78 |
| FSIP1 | 1 | no change | no change | 1.12 | -0.29 |
| LTB4R | 1 | no change | no change | -1.08 | 3.62 |
